Literature values, collected in patent US20050054614A1, “Methods of inhibiting leukocyte accumulation” (priority 2003, published 2005).
At least one compound was matched to its structure with a doubt left.

Legend:
neutrophils [1] = details: blockade of PI3K activity in neutrophils; Constantin et al.
[2] = tested on: Akt phosphorylation in HUVECs; details: endothelium; Madge et al.
neutrophils [3] = details: literature

In the case of `O=c1cc(N2CCOCC2)oc2c(-c3ccccc3)cccc12` [LY294002], the selectin-dependent adhesion (neutrophils [1]) is given as “does not alter”, the “phosphorylation of Akt in response to TNF” value [2] is given as “reduce” and the neutrophil chemotaxis (neutrophils [3]) is given as “mitigate”.

In the case of `COC[C@H]1OC(=O)c2coc3c2[C@@]1(C)C1=C(C3=O)[C@@H]2CCC(=O)[C@@]2(C)C[C@H]1OC(C)=O` [wortmannin], the selectin-dependent adhesion (neutrophils [1]) is listed as “does not alter” and the neutrophil chemotaxis (neutrophils [3]) is listed as “mitigate”.
